In patent US20190086411A1 (ROCHE SEQUENCING SOLUTIONS, published 2019):
No constants are given. Whether binding was seen depends on the method and setting. Some binding calls cover weakened binding; strength is not graded here.

Tests used:
[1] = molecular target: Streptavidin labelled with Cy5 (UniProt P22629); assay: extension peptide microarray (160,000 peptides, five replicates), Cy5-streptavidin
[2] = molecular target: Streptavidin labelled with Cy5 (UniProt P22629); assay: double substitution/deletion peptide microarray, Cy5-streptavidin

binding [1] | binding [2] | Binder
binds |  | DYLAEYHGG
binds |  | WTHPQFE
 | binds | NSFDDWLAKGG
 | binds | WTHPQFEQK
binds |  | NSFDEWLQK
 | binds | ADYLAEYHGG
binds |  | YERPGWKLS
 | binds | YERPGWKLGT
